The results in this text go back to patent US12005142B2, “Sustained-release compositions comprising a therapeutic agent for treating depression or anxiety and uses thereof” (TAIWAN LIPOSOME CO., LTD., priority 2018, dated 2024).

One series can be described thus: in vivo. As to conditions: female, Sprague-Dawley, rat, plasma.
The conditions of series [1]: for AUC0-inf/dose / Cmax/dose: rat plasma; for time within which scopolamine was undetectable in plasma: FIG. 2.

Each structure is given as a SMILES string. Where a name gives a salt, the structure may show the parent alone. Read-outs that look alike come from different tables or passages of the source.

The term AUC(0-inf) denotes the area under the concentration-time curve extrapolated to infinity. Low readings indicate less exposure, high ones more exposure. The term AUC(0-t) denotes exposure summed from dosing to a finite time, without extrapolation to infinity. The low end stands for less exposure, the high end for more exposure. For orientation: Cmax means the highest concentration seen after dosing. For `CN1[C@@H]2C[C@@H](OC(=O)[C@H](CO)c3ccccc3)C[C@H]1[C@@H]1O[C@@H]12` [Free Scopolamine, scopolamine hydrobromide trihydrate], in “in vivo” (iv, 2 mg/kg), the AUC(0-inf) was determined as 644 ng·h/mL, the AUC(0-t) was determined as 639 ng·h/mL and the peak level (Cmax) was 814 ng/mL. In the series “in vivo” (sc, 5 mg/kg), this compound yielded an AUC(0-inf) of 887 ng·h/mL, an AUC(0-t) of 886 ng·h/mL and a maximum concentration (Cmax) of 640 ng/mL. In series [1] (free scopolamine IV 2 mg/kg), this compound had an AUC0-inf/dose of 321.89 and a Cmax/dose of 407.00. Besides, in series [1] (free scopolamine IV), the “time within which scopolamine was undetectable in plasma” value is ≤ 2 h. Further, in series [1] (free scopolamine SC 5 mg/kg), the AUC0-inf/dose is 177.40 and the Cmax/dose is 127.93. In series [1] (free scopolamine SC), the “time within which scopolamine was undetectable in plasma” value is ≤ 6 h.
